Assay results reported in patent US20150212068A1, “Cholyl-L-Lysyl-Fluorescein Assay” (Novassay SA, priority 2012, published 2015).

What was measured:
[1] = Comparison of standards prepared from aqueous ethanol and methanol stock solutions, CLF ELISA; format: physicochemical
[2] = Intra-assay precision, sensitivity, spiking and dilution recovery of CLF added to different plasmas, labelled-antibody ELISA; design: species or system human
[3] = Assay drift and recovery of spiked CLF, CLF ELISA; design: species or system human
[4] = Evaluation of HPLC samples (Sample Set 2, rat samples) with the CLF ELISA
[5] = Interfering substances (haemolysis, icteria, lipaemia) in the CLF ELISA; design: species or system human
[6] = test pool, interferent 1 mg/ml, Intralipid in 500 ng/ml CLF serum pool, Hb and bilirubin in 100 ng/ml pool (NaOH)

With CC(CCC(=O)NC(CCCCNC(=S)Nc1ccc(-c2c3ccc(=O)cc-3oc3cc(O)ccc23)c(C(=O)O)c1)C(=O)O)C1CCC2C3C(O)CC4CC(O)CCC4(C)C3CC(O)C12C [CLF, Cholyl-L-Lysyl-Fluorescein] the “difference between expected and obtained concentrations” value ([1]; freshly prepared aqueous ethanol standards) was 5%, the “slope, observed vs expected concentration” value ([1]; freshly prepared aqueous ethanol stock standards read off aged (3 week old) aqueous ethanol standard curve) was 1.05 and the “difference between expected and obtained concentrations” value ([1]; freshly prepared methanol standards) was 48%. For the same molecule, the “slope, observed vs expected concentration” value ([1]; freshly prepared methanol stock standards read off aged (3 week old) aqueous ethanol standard curve) was 1.48, the sensitivity ([2]; assay plate of plasma #5876) was 3.8 ng/mL and the sensitivity ([2]; assay plate of plasma #5878) was 2.8 ng/mL. The sensitivity ([2]; assay plate of plasma #5881) was 3 ng/mL, the sensitivity ([2]; assay plate of plasma #5883) was 3.3 ng/mL and the sensitivity ([2]; assay plate of plasma #5884) was 3.2 ng/mL. The sensitivity ([2]; assay plate of plasma #5885) was 3.8 ng/mL, the observed ([3]; #5885 #1, spiked a week prior, kept at 2-8° C., expected 62.5 ng/ml) was 63 ng/mL and the observed ([3]; #5885 #2, spiked a week prior, kept at 2-8° C., expected 125 ng/ml) was 119 ng/mL. It also gave an observed ([3]; #5885 #3, spiked a week prior, kept at 2-8° C., expected 500 ng/ml) of 485 ng/mL, an observed ([3]; QC1, serum spiked the day prior, expected 31.25 ng/ml) of 37 ng/mL and an observed ([3]; QC2, serum spiked the day prior, expected 125 ng/ml) of 119 ng/mL. The observed ([3]; QC3, serum spiked the day prior, expected 500 ng/ml) was 438 ng/mL, the “Measured CLF (ng/ml) Mean” value ([4]; Rat CAL 1) was under 5 ng/mL and the “Measured CLF (ng/ml) Rep. 1” value ([4]; Rat CAL 1) was 6.2 ng/mL. For the same molecule, the “Measured CLF (ng/ml) Rep. 2” value ([4]; Rat CAL 1) was 2.5 ng/mL, the “Measured CLF (ng/ml) Mean” value ([4]; Rat CAL 2) was 22 ng/mL and the “Measured CLF (ng/ml) Rep. 1” value ([4]; Rat CAL 2) was 22.7 ng/mL. For the same molecule, the “Measured CLF (ng/ml) Rep. 2” value ([4]; Rat CAL 2) was 22.2 ng/mL, the “Measured CLF (ng/ml) Mean” value ([4]; Rat CAL 3) was 54 ng/mL and the “Measured CLF (ng/ml) Rep. 1” value ([4]; Rat CAL 3) was 55.0 ng/mL. For the same molecule, the “Measured CLF (ng/ml) Rep. 2” value ([4]; Rat CAL 3) was 52.2 ng/mL, the “Measured CLF (ng/ml) Mean” value ([4]; Rat CAL 4) was 174 ng/mL and the “Measured CLF (ng/ml) Rep. 1” value ([4]; Rat CAL 4) was 163.6 ng/mL. For the same molecule, the “Measured CLF (ng/ml) Rep. 2” value ([4]; Rat CAL 4) was 185.2 ng/mL, the “Measured CLF (ng/ml) Mean” value ([4]; Rat CAL 5) was 346 ng/mL and the “Measured CLF (ng/ml) Rep. 1” value ([4]; Rat CAL 5) was 381.0 ng/mL. The “Measured CLF (ng/ml) Rep. 2” value ([4]; Rat CAL 5) was 311.2 ng/mL, the “Measured CLF (ng/ml) Mean” value ([4]; Rat CAL 6) was 721 ng/mL and the “Measured CLF (ng/ml) Rep. 1” value ([4]; Rat CAL 6) was 712.4 ng/mL. For the same molecule, the “Measured CLF (ng/ml) Rep. 2” value ([4]; Rat CAL 6) was 730.5 ng/mL, the “Measured CLF (ng/ml) Mean” value ([4]; Rat CAL 7) was 1368 ng/mL and the “Measured CLF (ng/ml) Rep. 1” value ([4]; Rat CAL 7) was 1272.1 ng/mL. For the same molecule, the “Measured CLF (ng/ml) Rep. 2” value ([4]; Rat CAL 7) was 1464.7 ng/mL.
In the case of Hb, the “effect of interference end of plate” value ([5]; % change in CLF concentration vs base pool, interferent 1 mg/ml, Intralipid in 500 ng/ml CLF serum pool, Hb and bilirubin in 100 ng/ml pool (NaOH)) is reported as −4%, the “CLF concentration, ng/ml” value ([5]; high dose spikes, test pool: Intralipid 230 mg/ml, haemoglobin and bilirubin 4 and 4.5 mg/ml, off scale = >1000 ng/ml) is reported as “off” and the “CLF concentration, ng/ml beginning of plate” value [5, 6] is reported as 83 ng/mL. The “CLF concentration, ng/ml end of plate” value [5, 6] was 83 ng/mL.
